From ChEMBL document CHEMBL5465560, “Selectivity Literature for EUbOPEN Chemogenomic Library” (2024)

Sequences of proteins named here, by UniProt entry; tags and fusion partners are left off. A change or cut given only in a name is not applied to a line headed by its entry.
UniProt P50750, whole entry: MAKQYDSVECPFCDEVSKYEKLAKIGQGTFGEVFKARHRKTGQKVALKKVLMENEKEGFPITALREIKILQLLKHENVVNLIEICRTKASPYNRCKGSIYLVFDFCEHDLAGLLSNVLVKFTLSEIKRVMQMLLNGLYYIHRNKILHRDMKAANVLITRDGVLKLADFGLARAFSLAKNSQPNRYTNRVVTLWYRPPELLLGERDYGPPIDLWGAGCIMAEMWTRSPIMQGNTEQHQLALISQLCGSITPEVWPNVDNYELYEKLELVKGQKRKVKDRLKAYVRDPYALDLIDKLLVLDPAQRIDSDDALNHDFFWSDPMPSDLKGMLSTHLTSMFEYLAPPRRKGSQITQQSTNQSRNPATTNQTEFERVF
UniProt P46734: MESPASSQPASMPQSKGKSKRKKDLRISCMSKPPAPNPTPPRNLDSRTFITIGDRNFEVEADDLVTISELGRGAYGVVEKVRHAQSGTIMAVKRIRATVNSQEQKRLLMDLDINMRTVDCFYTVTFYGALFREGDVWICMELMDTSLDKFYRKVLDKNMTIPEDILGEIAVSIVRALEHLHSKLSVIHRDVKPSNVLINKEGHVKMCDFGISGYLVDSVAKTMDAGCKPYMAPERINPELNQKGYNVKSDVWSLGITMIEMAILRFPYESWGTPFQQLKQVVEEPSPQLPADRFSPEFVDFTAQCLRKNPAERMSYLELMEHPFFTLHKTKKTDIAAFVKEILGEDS
UniProt P10721, whole entry A829P: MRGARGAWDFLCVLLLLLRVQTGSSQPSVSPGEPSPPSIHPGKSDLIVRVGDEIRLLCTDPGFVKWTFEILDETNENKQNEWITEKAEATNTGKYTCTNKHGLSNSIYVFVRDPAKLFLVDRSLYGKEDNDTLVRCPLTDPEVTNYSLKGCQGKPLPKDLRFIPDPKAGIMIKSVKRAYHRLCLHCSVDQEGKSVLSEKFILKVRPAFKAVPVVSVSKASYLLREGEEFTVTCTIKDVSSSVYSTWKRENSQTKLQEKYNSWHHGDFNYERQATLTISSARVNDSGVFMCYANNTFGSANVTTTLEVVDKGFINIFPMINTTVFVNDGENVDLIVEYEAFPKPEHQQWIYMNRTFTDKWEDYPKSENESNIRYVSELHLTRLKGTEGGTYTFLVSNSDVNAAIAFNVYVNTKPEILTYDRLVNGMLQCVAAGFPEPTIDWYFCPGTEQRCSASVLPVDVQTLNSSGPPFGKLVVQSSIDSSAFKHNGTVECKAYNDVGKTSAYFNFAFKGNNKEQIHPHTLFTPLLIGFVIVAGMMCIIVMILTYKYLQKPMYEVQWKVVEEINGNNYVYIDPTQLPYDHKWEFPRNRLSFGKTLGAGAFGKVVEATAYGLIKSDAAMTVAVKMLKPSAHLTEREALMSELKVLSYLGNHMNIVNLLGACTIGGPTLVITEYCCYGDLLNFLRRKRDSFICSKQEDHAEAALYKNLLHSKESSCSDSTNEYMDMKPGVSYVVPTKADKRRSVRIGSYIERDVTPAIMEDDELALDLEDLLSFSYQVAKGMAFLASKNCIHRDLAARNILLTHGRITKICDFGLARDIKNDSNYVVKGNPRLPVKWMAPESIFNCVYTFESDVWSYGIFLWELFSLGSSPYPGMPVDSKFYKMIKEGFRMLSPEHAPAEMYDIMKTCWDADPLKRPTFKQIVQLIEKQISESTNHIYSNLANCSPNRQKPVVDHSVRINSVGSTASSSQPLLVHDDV
UniProt P10721, whole entry D816H: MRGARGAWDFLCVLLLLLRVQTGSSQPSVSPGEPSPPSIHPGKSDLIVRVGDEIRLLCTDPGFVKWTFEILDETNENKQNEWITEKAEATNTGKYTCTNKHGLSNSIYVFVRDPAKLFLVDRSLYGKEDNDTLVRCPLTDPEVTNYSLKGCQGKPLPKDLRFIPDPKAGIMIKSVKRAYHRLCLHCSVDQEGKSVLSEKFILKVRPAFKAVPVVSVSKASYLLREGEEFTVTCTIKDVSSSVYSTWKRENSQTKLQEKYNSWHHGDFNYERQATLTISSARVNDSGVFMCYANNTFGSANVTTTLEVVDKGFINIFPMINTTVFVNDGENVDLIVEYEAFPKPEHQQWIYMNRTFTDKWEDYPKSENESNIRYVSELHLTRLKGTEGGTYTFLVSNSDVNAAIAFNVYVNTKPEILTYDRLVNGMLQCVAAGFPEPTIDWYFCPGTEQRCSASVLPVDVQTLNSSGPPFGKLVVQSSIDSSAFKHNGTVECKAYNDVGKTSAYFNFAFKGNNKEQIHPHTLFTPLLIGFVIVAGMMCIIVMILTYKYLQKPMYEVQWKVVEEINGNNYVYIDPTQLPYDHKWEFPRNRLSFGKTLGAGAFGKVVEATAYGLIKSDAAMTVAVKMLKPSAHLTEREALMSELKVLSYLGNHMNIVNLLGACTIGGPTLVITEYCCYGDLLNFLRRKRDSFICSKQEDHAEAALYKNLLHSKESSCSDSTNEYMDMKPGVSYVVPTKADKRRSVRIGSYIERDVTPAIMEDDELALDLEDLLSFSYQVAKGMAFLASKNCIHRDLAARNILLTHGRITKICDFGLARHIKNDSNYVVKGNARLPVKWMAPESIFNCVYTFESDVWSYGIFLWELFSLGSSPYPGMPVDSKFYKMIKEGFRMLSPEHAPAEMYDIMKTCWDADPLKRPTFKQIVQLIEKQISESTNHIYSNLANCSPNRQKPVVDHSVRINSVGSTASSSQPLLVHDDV
UniProt P10721, whole entry V559D/V654A: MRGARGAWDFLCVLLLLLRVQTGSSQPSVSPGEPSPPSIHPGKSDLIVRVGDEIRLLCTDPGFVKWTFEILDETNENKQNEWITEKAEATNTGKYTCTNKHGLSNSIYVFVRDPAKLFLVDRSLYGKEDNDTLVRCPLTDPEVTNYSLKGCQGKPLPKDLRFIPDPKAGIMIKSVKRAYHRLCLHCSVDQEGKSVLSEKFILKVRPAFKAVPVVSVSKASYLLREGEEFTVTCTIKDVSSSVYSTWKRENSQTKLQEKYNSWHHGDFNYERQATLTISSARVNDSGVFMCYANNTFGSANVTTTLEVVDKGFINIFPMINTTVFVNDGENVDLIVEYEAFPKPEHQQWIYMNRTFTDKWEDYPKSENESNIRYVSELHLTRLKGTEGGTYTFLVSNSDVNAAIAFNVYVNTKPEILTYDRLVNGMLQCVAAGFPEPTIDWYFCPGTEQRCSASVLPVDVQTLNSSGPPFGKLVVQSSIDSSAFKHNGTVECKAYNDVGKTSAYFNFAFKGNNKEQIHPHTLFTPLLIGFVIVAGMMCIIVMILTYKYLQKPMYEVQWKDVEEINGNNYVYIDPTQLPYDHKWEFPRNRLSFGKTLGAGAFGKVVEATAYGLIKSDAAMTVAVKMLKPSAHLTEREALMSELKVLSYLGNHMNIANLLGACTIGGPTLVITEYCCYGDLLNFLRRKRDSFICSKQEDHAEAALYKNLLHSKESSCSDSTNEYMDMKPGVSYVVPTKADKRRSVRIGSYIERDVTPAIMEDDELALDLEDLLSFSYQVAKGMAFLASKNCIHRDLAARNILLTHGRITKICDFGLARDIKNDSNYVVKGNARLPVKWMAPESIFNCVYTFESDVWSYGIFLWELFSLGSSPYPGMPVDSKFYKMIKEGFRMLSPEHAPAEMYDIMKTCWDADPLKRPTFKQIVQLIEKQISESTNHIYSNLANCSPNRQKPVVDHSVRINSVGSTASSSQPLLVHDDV
UniProt P10721, whole entry D816V: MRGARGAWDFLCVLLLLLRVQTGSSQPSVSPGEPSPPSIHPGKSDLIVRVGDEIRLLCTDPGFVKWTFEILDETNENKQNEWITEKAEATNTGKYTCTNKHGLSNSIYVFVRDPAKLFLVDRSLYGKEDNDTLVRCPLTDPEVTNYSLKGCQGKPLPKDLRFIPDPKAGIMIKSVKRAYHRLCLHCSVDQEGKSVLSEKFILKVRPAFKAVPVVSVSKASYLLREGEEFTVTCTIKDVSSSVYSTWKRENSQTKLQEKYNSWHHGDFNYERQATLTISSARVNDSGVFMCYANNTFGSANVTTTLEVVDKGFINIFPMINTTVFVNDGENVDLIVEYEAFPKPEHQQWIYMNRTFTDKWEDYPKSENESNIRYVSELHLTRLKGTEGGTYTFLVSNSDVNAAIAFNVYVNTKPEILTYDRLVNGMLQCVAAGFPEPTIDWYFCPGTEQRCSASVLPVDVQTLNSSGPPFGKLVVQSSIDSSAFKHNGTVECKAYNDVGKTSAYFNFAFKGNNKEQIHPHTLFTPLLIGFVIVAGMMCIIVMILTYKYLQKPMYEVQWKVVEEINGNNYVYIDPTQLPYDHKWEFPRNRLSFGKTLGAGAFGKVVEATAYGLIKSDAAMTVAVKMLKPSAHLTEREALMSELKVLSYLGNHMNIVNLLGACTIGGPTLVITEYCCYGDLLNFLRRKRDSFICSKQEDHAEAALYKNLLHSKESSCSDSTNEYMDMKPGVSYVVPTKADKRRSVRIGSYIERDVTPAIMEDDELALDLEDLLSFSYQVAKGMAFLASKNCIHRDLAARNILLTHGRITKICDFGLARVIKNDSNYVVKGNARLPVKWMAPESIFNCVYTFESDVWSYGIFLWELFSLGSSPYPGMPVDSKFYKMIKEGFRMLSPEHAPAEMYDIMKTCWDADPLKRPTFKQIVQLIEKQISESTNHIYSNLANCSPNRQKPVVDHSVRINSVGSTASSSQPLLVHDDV
UniProt P10721, whole entry V559D: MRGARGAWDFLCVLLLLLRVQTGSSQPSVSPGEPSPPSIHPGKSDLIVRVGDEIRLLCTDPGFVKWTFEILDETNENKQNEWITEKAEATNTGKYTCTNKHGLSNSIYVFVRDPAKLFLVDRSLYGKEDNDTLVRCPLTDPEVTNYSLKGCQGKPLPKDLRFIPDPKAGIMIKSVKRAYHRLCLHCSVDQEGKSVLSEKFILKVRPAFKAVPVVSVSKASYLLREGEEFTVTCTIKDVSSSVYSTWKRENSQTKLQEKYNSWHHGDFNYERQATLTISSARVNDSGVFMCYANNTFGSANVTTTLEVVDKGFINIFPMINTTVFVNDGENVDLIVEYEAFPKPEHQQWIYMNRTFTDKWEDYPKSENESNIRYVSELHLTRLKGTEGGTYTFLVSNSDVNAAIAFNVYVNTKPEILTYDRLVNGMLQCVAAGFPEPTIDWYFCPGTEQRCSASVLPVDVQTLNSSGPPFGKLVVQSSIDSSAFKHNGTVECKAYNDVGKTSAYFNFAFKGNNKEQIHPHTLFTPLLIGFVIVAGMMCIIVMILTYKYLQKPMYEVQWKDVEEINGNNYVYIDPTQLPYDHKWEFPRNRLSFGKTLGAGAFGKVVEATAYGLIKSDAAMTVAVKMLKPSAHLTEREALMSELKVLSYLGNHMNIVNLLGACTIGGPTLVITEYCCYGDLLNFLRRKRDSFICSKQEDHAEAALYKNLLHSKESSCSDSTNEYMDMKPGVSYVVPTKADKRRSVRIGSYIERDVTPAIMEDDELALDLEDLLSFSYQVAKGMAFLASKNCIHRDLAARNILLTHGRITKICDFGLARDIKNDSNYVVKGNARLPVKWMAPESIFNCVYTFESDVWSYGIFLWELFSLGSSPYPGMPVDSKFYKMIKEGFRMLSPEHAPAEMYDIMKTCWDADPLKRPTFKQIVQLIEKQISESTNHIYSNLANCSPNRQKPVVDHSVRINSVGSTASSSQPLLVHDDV
UniProt P10721, whole entry L576P: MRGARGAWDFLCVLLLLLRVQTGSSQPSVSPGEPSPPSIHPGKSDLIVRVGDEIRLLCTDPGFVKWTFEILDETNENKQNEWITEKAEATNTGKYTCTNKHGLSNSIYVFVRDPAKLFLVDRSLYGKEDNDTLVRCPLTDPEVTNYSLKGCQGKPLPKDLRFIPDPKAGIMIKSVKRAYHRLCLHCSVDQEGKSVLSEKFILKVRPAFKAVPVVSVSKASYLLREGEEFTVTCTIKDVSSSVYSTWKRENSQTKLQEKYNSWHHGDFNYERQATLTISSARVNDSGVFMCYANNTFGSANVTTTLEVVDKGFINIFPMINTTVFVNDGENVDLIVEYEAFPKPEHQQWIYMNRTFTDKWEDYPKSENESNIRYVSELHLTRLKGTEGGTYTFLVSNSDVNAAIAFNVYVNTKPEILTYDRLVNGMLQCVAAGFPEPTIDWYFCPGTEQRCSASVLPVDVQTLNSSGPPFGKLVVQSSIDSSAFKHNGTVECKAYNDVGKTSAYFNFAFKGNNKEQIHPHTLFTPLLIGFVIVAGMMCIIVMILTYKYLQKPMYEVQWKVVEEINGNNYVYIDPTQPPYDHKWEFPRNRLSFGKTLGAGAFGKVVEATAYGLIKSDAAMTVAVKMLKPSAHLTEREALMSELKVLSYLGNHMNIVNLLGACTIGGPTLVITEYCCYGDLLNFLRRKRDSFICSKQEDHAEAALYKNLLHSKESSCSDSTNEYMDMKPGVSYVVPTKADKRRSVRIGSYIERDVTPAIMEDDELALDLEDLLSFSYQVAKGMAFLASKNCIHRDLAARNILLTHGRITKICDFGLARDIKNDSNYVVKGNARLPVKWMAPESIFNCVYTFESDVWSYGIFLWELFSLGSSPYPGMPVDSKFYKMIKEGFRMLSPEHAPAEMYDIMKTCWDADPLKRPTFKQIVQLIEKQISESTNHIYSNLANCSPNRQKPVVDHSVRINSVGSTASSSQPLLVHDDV

Experiments:
Conditions in all cases: at 1 µM
[1] = molecular target: Serine/threonine-protein kinase 38-like (Homo sapiens) (UniProt Q9Y2H1); experiment: Selectivity interaction (KinomeScan (DiscoverX)) EUB0001581a STK38L
[2] = molecular target: Cyclin-dependent kinase 9 (Homo sapiens, UniProt P50750); experiment: Selectivity interaction (KinomeScan (DiscoverX)) EUB0001581a CDK9
[3] = molecular target: Phosphatidylinositol 4,5-bisphosphate 3-kinase catalytic subunit beta isoform (Homo sapiens) (UniProt P42338); experiment: Selectivity interaction (KinomeScan (DiscoverX)) EUB0001581a PIK3CB
[4] = molecular target: Vascular endothelial growth factor receptor 2 (Homo sapiens, UniProt P35968); experiment: Selectivity interaction (KinomeScan (DiscoverX)) EUB0001581a KDR
[5] = molecular target: Ribosomal protein S6 kinase alpha-4 (Homo sapiens) (UniProt O75676); experiment: Selectivity interaction (KinomeScan (DiscoverX)) EUB0001581a RPS6KA4
[6] = molecular target: Serine/threonine-protein kinase 3 (Homo sapiens) (UniProt Q13188); experiment: Selectivity interaction (KinomeScan (DiscoverX)) EUB0001581a STK3
[7] = molecular target: Mitogen-activated protein kinase 10 (Homo sapiens, UniProt P53779); experiment: Selectivity interaction (KinomeScan (DiscoverX)) EUB0001581a MAPK10
[8] = molecular target: Non-receptor tyrosine-protein kinase TNK1 (Homo sapiens) (UniProt Q13470); experiment: Selectivity interaction (KinomeScan (DiscoverX)) EUB0001581a TNK1
[9] = molecular target: Calcium/calmodulin-dependent protein kinase type II subunit gamma (Homo sapiens) (UniProt Q13555); experiment: Selectivity interaction (KinomeScan (DiscoverX)) EUB0001581a CAMK2G
[10] = molecular target: Phosphatidylinositol 3-kinase C2 domain-containing subunit gamma (Homo sapiens) (UniProt O75747); experiment: Selectivity interaction (KinomeScan (DiscoverX)) EUB0001581a PIK3C2G
[11] = molecular target: Dual specificity protein kinase CLK4 (Homo sapiens, UniProt Q9HAZ1); experiment: Selectivity interaction (KinomeScan (DiscoverX)) EUB0001581a CLK4
[12] = molecular target: Activated CDC42 kinase 1 (Homo sapiens, UniProt Q07912); experiment: Selectivity interaction (KinomeScan (DiscoverX)) EUB0001581a TNK2
[13] = molecular target: Receptor tyrosine-protein kinase erbB-3 (Homo sapiens) (UniProt P21860); experiment: Selectivity interaction (KinomeScan (DiscoverX)) EUB0001581a ERBB3
[14] = molecular target: Serine/threonine-protein kinase LATS1 (Homo sapiens) (UniProt O95835); experiment: Selectivity interaction (KinomeScan (DiscoverX)) EUB0001581a LATS1
[15] = molecular target: Cyclin-dependent kinase 13 (Homo sapiens, UniProt Q14004); experiment: Selectivity interaction (KinomeScan (DiscoverX)) EUB0001581a CDK13
[16] = molecular target: Serine/threonine-protein kinase 35 (Homo sapiens) (UniProt Q8TDR2); experiment: Selectivity interaction (KinomeScan (DiscoverX)) EUB0001581a STK35
[17] = molecular target: Cyclin-dependent kinase 5 (Homo sapiens, UniProt Q00535); experiment: Selectivity interaction (KinomeScan (DiscoverX)) EUB0001581a CDK5
[18] = molecular target: Serine/threonine-protein kinase 36 (Homo sapiens) (UniProt Q9NRP7); experiment: Selectivity interaction (KinomeScan (DiscoverX)) EUB0001581a STK36
[19] = molecular target: Mitogen-activated protein kinase 9 (Homo sapiens, UniProt P45984); experiment: Selectivity interaction (KinomeScan (DiscoverX)) EUB0001581a MAPK9
[20] = molecular target: SRSF protein kinase 3 (Homo sapiens) (UniProt Q9UPE1); experiment: Selectivity interaction (KinomeScan (DiscoverX)) EUB0001581a SRPK3
[21] = molecular target: Epidermal growth factor receptor (Homo sapiens, UniProt P00533); experiment: (§1) Selectivity interaction (KinomeScan (DiscoverX)) EUB0001581a EGFR
[22] = system: Epidermal growth factor receptor (Homo sapiens), P00533 [UNDEFINED MUTATION]; experiment: as §1
[23] = molecular target: Interleukin-1 receptor-associated kinase 3 (Homo sapiens) (UniProt Q9Y616); experiment: Selectivity interaction (KinomeScan (DiscoverX)) EUB0001581a IRAK3
[24] = molecular target: Mitogen-activated protein kinase kinase kinase 19 (Homo sapiens) (UniProt Q56UN5); experiment: Selectivity interaction (KinomeScan (DiscoverX)) EUB0001581a MAP3K19
[25] = molecular target: Membrane-associated tyrosine- and threonine-specific cdc2-inhibitory kinase (Homo sapiens) (UniProt Q99640); experiment: Selectivity interaction (KinomeScan (DiscoverX)) EUB0001581a PKMYT1
[26] = molecular target: Ephrin type-A receptor 5 (Homo sapiens) (UniProt P54756); experiment: Selectivity interaction (KinomeScan (DiscoverX)) EUB0001581a EPHA5
[27] = molecular target: Dual specificity mitogen-activated protein kinase kinase 3 (Homo sapiens) (UniProt P46734); experiment: Selectivity interaction (KinomeScan (DiscoverX)) EUB0001581a MAP2K3
[28] = molecular target: Wee1-like protein kinase (Homo sapiens) (UniProt P30291); experiment: Selectivity interaction (KinomeScan (DiscoverX)) EUB0001581a WEE1
[29] = molecular target: Tyrosine-protein kinase FRK (Homo sapiens) (UniProt P42685); experiment: Selectivity interaction (KinomeScan (DiscoverX)) EUB0001581a FRK
[30] = molecular target: Interleukin-1 receptor-associated kinase 4 (Homo sapiens) (UniProt Q9NWZ3); experiment: Selectivity interaction (KinomeScan (DiscoverX)) EUB0001581a IRAK4
[31] = system: Mast/stem cell growth factor receptor Kit (Homo sapiens), P10721 [A829P]; experiment: (§2) Selectivity interaction (KinomeScan (DiscoverX)) EUB0001581a KIT
[32] = system: Mast/stem cell growth factor receptor Kit (Homo sapiens), P10721 [D816H]; experiment: as §2
[33] = system: Mast/stem cell growth factor receptor Kit (Homo sapiens), P10721 [V559D,V654A]; experiment: as §2
[34] = system: Mast/stem cell growth factor receptor Kit (Homo sapiens), P10721 [D816V]; experiment: as §2
[35] = system: Mast/stem cell growth factor receptor Kit (Homo sapiens), P10721 [V559D]; experiment: as §2
[36] = system: Mast/stem cell growth factor receptor Kit (Homo sapiens), P10721 [L576P]; experiment: as §2
[37] = system: Mast/stem cell growth factor receptor Kit (Homo sapiens), P10721 [V559D,T670I]; experiment: as §2
[38] = molecular target: Mast/stem cell growth factor receptor Kit (Homo sapiens, UniProt P10721); experiment: as §2
[39] = molecular target: Casein kinase I isoform gamma-2 (Homo sapiens) (UniProt P78368); experiment: Selectivity interaction (KinomeScan (DiscoverX)) EUB0001581a CSNK1G2
[40] = molecular target: AP2-associated protein kinase 1 (Homo sapiens, UniProt Q2M2I8); experiment: Selectivity interaction (KinomeScan (DiscoverX)) EUB0001581a AAK1
[41] = molecular target: Serine/threonine-protein kinase Nek11 (Homo sapiens) (UniProt Q8NG66); experiment: Selectivity interaction (KinomeScan (DiscoverX)) EUB0001581a NEK11

C[C@@H]1C[C@H](N)C[C@H](c2ccncc2NC(=O)c2ccc(F)c(-c3c(F)cccc3F)n2)C1
% of control [1]: 99% | % of control [2]: 100% | % of control [3]: 38% | % of control [4]: 98% | % of control [5]: 90% | % of control [6]: 78% | % of control [7]: 100% | % of control [8]: 100% | % of control [9]: 100% | % of control [10]: 100% | % of control [11]: 53% | % of control [12]: 100% | % of control [13]: 100% | % of control [14]: 93% | % of control [15]: 100% | % of control [16]: 100% | % of control [17]: 100% | % of control [18]: 97% | % of control [19]: 100% | % of control [20]: 100% | % of control [21]: 87% | % of control [22]: 88% | % of control [23]: 97% | % of control [24]: 100% | % of control [25]: 100% | % of control [26]: 100% | % of control [27]: 65% | % of control [28]: 100% | % of control [29]: 100% | % of control [30]: 100% | % of control [31]: 100% | % of control [32]: 98% | % of control [33]: 100% | % of control [34]: 83% | % of control [35]: 92% | % of control [36]: 100% | % of control [37]: 85% | % of control [38]: 82% | % of control [39]: 73% | % of control [40]: 81% | % of control [41]: 100%
